Experimental data reported in article PMC5072609.
These are yes or no findings as the source states them, for the method shown. Binding seen in cells or lysates may run through a third protein. Some binding calls cover weakened binding; strength is not graded here.

By UniProt entry, the sequences of proteins in these tests, tags left out. Residues count along the entry.
UniProt Q99816: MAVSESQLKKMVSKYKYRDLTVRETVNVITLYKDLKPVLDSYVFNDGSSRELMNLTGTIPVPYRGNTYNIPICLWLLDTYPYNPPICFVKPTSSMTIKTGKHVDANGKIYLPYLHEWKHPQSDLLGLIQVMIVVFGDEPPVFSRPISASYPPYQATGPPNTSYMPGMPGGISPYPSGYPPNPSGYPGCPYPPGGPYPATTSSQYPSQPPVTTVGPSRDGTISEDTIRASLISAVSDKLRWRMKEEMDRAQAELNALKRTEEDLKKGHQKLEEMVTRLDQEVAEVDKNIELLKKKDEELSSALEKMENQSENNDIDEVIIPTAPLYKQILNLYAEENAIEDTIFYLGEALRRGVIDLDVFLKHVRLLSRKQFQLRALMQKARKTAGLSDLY
UniProt P29317, residues 24-976: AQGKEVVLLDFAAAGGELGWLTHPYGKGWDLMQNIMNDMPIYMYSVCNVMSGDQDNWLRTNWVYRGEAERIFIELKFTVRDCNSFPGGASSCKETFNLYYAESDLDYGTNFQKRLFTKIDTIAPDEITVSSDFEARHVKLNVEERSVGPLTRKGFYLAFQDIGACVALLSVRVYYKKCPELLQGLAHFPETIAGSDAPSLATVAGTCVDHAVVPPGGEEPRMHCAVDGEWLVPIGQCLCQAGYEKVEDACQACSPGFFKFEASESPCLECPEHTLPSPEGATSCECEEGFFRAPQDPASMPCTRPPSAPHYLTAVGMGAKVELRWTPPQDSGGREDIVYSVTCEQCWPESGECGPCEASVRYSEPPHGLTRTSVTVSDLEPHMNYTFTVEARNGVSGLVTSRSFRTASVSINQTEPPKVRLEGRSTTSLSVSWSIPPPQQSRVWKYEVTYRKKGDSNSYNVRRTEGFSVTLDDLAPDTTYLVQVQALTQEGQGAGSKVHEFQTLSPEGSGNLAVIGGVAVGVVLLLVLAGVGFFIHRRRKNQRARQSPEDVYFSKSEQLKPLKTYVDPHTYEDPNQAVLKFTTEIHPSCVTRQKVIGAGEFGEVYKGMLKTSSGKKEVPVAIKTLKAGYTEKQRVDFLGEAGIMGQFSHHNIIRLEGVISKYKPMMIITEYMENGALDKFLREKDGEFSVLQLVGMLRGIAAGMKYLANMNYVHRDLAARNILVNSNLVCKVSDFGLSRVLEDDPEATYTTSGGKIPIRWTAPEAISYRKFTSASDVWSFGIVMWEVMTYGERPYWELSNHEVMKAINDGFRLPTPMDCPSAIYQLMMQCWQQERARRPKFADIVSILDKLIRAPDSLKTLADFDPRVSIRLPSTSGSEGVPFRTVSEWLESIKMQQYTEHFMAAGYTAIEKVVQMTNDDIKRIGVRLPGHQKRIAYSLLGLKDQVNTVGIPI
UniProt O14964: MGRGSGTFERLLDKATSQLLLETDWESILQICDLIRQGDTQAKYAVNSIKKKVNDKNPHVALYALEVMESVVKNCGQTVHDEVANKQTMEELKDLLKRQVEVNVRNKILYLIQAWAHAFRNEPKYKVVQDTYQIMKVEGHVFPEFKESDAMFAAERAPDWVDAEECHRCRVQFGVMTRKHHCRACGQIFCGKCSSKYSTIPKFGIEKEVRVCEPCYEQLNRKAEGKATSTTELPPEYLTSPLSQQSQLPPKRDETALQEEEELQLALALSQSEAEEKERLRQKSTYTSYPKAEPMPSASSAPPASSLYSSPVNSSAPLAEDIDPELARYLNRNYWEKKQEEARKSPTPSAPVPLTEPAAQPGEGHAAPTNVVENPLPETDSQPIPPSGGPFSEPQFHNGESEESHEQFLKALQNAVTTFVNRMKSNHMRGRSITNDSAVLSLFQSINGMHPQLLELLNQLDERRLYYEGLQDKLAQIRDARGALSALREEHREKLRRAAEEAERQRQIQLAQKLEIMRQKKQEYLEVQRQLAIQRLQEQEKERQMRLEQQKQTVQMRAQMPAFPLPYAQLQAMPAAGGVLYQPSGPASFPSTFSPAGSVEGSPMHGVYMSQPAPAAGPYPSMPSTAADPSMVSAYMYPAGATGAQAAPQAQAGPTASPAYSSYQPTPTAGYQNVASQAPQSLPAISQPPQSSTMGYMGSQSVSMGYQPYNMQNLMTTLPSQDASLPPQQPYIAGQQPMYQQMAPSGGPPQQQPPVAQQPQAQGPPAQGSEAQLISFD
UniProt Q9NZZ3: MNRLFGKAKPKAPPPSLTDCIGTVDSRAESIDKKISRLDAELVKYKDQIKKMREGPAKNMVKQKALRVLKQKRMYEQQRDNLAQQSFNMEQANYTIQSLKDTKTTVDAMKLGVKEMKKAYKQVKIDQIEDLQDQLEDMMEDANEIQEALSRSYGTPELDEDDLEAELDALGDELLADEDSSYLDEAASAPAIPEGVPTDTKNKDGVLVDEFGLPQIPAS
UniProt P46108: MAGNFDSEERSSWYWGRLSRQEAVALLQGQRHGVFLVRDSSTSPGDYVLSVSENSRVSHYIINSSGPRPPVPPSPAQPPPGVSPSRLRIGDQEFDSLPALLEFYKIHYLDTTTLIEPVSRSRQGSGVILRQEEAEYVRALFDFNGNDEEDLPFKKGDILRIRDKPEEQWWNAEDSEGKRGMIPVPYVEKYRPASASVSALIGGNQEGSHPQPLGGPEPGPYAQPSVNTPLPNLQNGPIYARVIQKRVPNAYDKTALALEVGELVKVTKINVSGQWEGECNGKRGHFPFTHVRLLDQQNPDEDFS

B1: ESCRT-III protein CHMP6 (protein, UniProt Q96FZ7 1-201)
chain: MGNLFGRKKQSRVTEQDKAILQLKQQRDKLRQYQKRIAQQLERERALARQLLRDGRKERAKLLLKKKRYQEQLLDRTENQISSLEAMVQSIEFTQIEMKVMEGLQFGNECLNKMHQVMSIEEVERILDETQEAVEYQRQIDELLAGSFTQEDEDAILEELSAITQEQIELPEVPSEPLPEKIPENVPVKARPRQAELVAAS
B2: scaffold protein p130Cas (protein, UniProt P56945 1-870)
chain: MNHLNVLAKALYDNVAESPDELSFRKGDIMTVLEQDTQGLDGWWLCSLHGRQGIVPGNRLKILVGMYDKKPAGPGPGPPATPAQPQPGLHAPAPPASQYTPMLPNTYQPQPDSVYLVPTPSKAQQGLYQVPGPSPQFQSPPAKQTSTFSKQTPHHPFPSPATDLYQVPPGPGGPAQDIYQVPPSAGMGHDIYQVPPSMDTRSWEGTKPPAKVVVPTRVGQGYVYEAAQPEQDEYDIPRHLLAPGPQDIYDVPPVRGLLPSQYGQEVYDTPPMAVKGPNGRDPLLEVYDVPPSVEKGLPPSNHHAVYDVPPSVSKDVPDGPLLREETYDVPPAFAKAKPFDPARTPLVLAAPPPDSPPAEDVYDVPPPAPDLYDVPPGLRRPGPGTLYDVPRERVLPPEVADGGVVDSGVYAVPPPAEREAPAEGKRLSASSTGSTRSSQSASSLEVAGPGREPLELEVAVEALARLQQGVSATVAHLLDLAGSAGATGSWRSPSEPQEPLVQDLQAAVAAVQSAVHELLEFARSAVGNAAHTSDRALHAKLSRQLQKMEDVHQTLVAHGQALDAGRGGSGATLEDLDRLVACSRAVPEDAKQLASFLHGNASLLFRRTKATAPGPEGGGTLHPNPTDKTSSIQSRPLPSPPKFTSQDSPDGQYENSEGGWMEDYDYVHLQGKEEFEKTQKELLEKGSITRQGKSQLELQQLKQFERLEQEVSRPIDHDLANWTPAQPLAPGRTGGLGPSDRQLLLFYLEQCEANLTTLTNAVDAFFTAVATNQPPKIFVAHSKFVILSAHKLVFIGDTLSRQAKAADVRSQVTHYSNLLCDLLRGIVATTKAAALQYPSPSAAQDMVERVKELGHSTQQFRRVLGQLAAA
B3: ESCRT-II protein EAP45 (protein, UniProt Q86VN1 1-386)
chain: MDRFVWTSGLLEINETLVIQQRGVRIYDGEEKIKFDAGTLLLSTHRLIWRDQKNHECCMAILLSQIVFIEEQAAGIGKSAKIVVHLHPAPPNKEPGPFQSSKNSYIKLSFKEHGQIEFYRRLSEEMTQRRWENMPVSQSLQTNRGPQPGRIRAVGIVGIERKLEEKRKETDKNISEAFEDLSKLMIKAKEMVELSKSIANKIKDKQGDITEDETIRFKSYLLSMGIANPVTRETYGSGTQYHMQLAKQLAGILQVPLEERGGIMSLTEVYCLVNRARGMELLSPEDLVNACKMLEALKLPLRLRVFDSGVMVIELQSHKEEEMVASALETVSEKGSLTSEEFAKLVGMSVLLAKERLLLAEKMGHLCRDDSVEGLRFYPNLFMTQS

What follows are molecules tested against ESCRT-I complex protein Tsg101 (tumor susceptibility gene 101) (human (endogenous in HMVEC-d)) (UniProt Q99816) (assay: co-IP; as a1, the uninfected (mock) serum-starved HMVEC-d cells only; anti-Tsg101 IP, Western blot for the signal molecules).

Molecule | binding
Ephrin A2 receptor tyrosine kinase (EphA2R) (from UniProt P29317 24-976) | binds weakly

Molecular target: ESCRT-I complex protein Tsg101 (tumor susceptibility gene 101) (human (endogenous in HMVEC-d)) (UniProt Q99816)
Assay: as above
Remark: another data set of the same source

Molecule | binding
Ephrin A2 receptor tyrosine kinase (EphA2R) (from UniProt P29317 24-976) | no binding (condition: uninfected cells (without KSHV))

The molecules below were run against ESCRT-I complex protein Tsg101 (tumor susceptibility gene 101) (human (endogenous in HMVEC-d)) (UniProt Q99816) (assay: proximity ligation; Duolink PLA on fixed, permeabilised HMVEC-d cells, uninfected or KSHV infected (30 DNA copies/cell; 10 min or the indicated times), primary antibodies to the two endogenous proteins; signal within 40 nm or less).

Molecule | binding
ESCRT-0 protein Hrs (from UniProt O14964 1-777) | binds
ESCRT-III protein CHMP5 (from UniProt Q9NZZ3 1-219) | binds
Ephrin A2 receptor tyrosine kinase (EphA2R) (from UniProt P29317 24-976) | binds
adaptor Crk (from UniProt P46108 1-304) | binds
B1 | binds
B2 | binds
B3 | binds

These molecules were tested against ESCRT-I complex protein Tsg101 (tumor susceptibility gene 101) (human (endogenous in HMVEC-d)) (UniProt Q99816) (assay: co-IP; anti-Tsg101 antibody on 300-500 ug precleared lysate (25 mM Tris-HCl pH 7.5, 150 mM NaCl, 1% NP40, 2 mM EDTA, 10% glycerol) of HMVEC-d cells, mock or KSHV infected (30 DNA copies/cell; 5, 10, 30 min; serum-starved 8 h for Fig 5 and Fig 8), overnight 4°C, protein A or G-Sepharose, Western …).

Molecule | binding
ESCRT-0 protein Hrs (from UniProt O14964 1-777) | binds
ESCRT-III protein CHMP5 (from UniProt Q9NZZ3 1-219) | binds
Ephrin A2 receptor tyrosine kinase (EphA2R) (from UniProt P29317 24-976) | binds
adaptor Crk (from UniProt P46108 1-304) | binds

Molecular target: ESCRT-I complex protein Tsg101 (tumor susceptibility gene 101) (human (endogenous in HMVEC-d)) (UniProt Q99816)
Assay: as above
Remark: another data set of the same source

Molecule | binding
B1 | binds
B2 | binds
B3 | binds
